We go through one molecule from publication PMC9900092.

Results are given in words; binding and its absence hold for the method and conditions named. Some entries that bind do so weakly or less than the wild type. For some assays here: Where a sequence is shown, tags or fusion partners need not be part of it.

The target of one experiment is T1, HypC (E. coli) (UniProt P0AAM3).
T1 sequence: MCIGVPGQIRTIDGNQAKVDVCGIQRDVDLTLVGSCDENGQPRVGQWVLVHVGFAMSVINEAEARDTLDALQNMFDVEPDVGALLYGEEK
The experiment is described as follows: co-purification (Strep-tag affinity chromatography, then anion exchange chromatography); proteins co-expressed in E. coli; StrepII-tag only on the chaperone; Strep‐tactinXT Sepharose, then Q‐Sepharose Fast Flow (NaCl gradient 0.1–1 M in 50 mM Tris–HCl pH 8); anaerobic chamber, 4 °C; complexes analysed by SDS/PAGE and western blotting with anti‐HypD or anti‐HybG antiserum.

Experiment [1] deals with T2, HybG with C‐terminal Strep‐TagII (E. coli) (UniProt P0AAM7).
T2 sequence: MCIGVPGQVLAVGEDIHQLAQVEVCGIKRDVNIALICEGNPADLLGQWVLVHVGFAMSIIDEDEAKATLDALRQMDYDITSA
The description is as above.

B1: HypD (native) (protein, UniProt P24192 1-373)
chain: MRFVDEYRAPEQVMQLIEHLRERASHLSYTAERPLRIMEVCGGHTHAIFKFGLDQLLPENVEFIHGPGCPVCVLPMGRIDTCVEIASHPEVIFCTFGDAMRVPGKQGSLLQAKARGADVRIVYSPMDALKLAQENPTRKVVFFGLGFETTMPTTAITLQQAKARDVQNFYFFCQHITLIPTLRSLLEQPDNGIDAFLAPGHVSMVIGTDAYNFIASDFHRPLVVAGFEPLDLLQGVVMLVQQKIAAHSKVENQYRRVVPDAGNLLAQQAIADVFCVNGDSEWRGLGVIESSGVHLTPDYQRFDAEAHFRPAPQQVCDDPRARCGEVLTGKCKPHQCPLFGNTCNPQTAFGALMVSSEGACAAWYQYRQQESEA
Turning to B1, the binding result (with HypC (E. coli); in experiment [1]) was “binds” each time.
